Measurements taken from the supplement of paper PMC10849652.
The list shows a part of the results.

Chains of the proteins cited; added tags and fusions are not shown. Lines headed by an entry give the natural chain unless they say otherwise; changes in a name come on top.
UniProt O15541: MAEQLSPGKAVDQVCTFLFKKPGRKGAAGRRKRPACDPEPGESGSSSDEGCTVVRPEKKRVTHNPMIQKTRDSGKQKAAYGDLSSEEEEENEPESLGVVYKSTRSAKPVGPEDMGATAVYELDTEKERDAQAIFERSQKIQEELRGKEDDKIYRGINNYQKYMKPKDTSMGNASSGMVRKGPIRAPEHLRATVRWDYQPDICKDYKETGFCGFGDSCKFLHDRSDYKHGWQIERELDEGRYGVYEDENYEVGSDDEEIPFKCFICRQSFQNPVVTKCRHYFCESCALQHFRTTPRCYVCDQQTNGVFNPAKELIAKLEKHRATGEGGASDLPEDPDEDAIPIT
UniProt Q63HN8: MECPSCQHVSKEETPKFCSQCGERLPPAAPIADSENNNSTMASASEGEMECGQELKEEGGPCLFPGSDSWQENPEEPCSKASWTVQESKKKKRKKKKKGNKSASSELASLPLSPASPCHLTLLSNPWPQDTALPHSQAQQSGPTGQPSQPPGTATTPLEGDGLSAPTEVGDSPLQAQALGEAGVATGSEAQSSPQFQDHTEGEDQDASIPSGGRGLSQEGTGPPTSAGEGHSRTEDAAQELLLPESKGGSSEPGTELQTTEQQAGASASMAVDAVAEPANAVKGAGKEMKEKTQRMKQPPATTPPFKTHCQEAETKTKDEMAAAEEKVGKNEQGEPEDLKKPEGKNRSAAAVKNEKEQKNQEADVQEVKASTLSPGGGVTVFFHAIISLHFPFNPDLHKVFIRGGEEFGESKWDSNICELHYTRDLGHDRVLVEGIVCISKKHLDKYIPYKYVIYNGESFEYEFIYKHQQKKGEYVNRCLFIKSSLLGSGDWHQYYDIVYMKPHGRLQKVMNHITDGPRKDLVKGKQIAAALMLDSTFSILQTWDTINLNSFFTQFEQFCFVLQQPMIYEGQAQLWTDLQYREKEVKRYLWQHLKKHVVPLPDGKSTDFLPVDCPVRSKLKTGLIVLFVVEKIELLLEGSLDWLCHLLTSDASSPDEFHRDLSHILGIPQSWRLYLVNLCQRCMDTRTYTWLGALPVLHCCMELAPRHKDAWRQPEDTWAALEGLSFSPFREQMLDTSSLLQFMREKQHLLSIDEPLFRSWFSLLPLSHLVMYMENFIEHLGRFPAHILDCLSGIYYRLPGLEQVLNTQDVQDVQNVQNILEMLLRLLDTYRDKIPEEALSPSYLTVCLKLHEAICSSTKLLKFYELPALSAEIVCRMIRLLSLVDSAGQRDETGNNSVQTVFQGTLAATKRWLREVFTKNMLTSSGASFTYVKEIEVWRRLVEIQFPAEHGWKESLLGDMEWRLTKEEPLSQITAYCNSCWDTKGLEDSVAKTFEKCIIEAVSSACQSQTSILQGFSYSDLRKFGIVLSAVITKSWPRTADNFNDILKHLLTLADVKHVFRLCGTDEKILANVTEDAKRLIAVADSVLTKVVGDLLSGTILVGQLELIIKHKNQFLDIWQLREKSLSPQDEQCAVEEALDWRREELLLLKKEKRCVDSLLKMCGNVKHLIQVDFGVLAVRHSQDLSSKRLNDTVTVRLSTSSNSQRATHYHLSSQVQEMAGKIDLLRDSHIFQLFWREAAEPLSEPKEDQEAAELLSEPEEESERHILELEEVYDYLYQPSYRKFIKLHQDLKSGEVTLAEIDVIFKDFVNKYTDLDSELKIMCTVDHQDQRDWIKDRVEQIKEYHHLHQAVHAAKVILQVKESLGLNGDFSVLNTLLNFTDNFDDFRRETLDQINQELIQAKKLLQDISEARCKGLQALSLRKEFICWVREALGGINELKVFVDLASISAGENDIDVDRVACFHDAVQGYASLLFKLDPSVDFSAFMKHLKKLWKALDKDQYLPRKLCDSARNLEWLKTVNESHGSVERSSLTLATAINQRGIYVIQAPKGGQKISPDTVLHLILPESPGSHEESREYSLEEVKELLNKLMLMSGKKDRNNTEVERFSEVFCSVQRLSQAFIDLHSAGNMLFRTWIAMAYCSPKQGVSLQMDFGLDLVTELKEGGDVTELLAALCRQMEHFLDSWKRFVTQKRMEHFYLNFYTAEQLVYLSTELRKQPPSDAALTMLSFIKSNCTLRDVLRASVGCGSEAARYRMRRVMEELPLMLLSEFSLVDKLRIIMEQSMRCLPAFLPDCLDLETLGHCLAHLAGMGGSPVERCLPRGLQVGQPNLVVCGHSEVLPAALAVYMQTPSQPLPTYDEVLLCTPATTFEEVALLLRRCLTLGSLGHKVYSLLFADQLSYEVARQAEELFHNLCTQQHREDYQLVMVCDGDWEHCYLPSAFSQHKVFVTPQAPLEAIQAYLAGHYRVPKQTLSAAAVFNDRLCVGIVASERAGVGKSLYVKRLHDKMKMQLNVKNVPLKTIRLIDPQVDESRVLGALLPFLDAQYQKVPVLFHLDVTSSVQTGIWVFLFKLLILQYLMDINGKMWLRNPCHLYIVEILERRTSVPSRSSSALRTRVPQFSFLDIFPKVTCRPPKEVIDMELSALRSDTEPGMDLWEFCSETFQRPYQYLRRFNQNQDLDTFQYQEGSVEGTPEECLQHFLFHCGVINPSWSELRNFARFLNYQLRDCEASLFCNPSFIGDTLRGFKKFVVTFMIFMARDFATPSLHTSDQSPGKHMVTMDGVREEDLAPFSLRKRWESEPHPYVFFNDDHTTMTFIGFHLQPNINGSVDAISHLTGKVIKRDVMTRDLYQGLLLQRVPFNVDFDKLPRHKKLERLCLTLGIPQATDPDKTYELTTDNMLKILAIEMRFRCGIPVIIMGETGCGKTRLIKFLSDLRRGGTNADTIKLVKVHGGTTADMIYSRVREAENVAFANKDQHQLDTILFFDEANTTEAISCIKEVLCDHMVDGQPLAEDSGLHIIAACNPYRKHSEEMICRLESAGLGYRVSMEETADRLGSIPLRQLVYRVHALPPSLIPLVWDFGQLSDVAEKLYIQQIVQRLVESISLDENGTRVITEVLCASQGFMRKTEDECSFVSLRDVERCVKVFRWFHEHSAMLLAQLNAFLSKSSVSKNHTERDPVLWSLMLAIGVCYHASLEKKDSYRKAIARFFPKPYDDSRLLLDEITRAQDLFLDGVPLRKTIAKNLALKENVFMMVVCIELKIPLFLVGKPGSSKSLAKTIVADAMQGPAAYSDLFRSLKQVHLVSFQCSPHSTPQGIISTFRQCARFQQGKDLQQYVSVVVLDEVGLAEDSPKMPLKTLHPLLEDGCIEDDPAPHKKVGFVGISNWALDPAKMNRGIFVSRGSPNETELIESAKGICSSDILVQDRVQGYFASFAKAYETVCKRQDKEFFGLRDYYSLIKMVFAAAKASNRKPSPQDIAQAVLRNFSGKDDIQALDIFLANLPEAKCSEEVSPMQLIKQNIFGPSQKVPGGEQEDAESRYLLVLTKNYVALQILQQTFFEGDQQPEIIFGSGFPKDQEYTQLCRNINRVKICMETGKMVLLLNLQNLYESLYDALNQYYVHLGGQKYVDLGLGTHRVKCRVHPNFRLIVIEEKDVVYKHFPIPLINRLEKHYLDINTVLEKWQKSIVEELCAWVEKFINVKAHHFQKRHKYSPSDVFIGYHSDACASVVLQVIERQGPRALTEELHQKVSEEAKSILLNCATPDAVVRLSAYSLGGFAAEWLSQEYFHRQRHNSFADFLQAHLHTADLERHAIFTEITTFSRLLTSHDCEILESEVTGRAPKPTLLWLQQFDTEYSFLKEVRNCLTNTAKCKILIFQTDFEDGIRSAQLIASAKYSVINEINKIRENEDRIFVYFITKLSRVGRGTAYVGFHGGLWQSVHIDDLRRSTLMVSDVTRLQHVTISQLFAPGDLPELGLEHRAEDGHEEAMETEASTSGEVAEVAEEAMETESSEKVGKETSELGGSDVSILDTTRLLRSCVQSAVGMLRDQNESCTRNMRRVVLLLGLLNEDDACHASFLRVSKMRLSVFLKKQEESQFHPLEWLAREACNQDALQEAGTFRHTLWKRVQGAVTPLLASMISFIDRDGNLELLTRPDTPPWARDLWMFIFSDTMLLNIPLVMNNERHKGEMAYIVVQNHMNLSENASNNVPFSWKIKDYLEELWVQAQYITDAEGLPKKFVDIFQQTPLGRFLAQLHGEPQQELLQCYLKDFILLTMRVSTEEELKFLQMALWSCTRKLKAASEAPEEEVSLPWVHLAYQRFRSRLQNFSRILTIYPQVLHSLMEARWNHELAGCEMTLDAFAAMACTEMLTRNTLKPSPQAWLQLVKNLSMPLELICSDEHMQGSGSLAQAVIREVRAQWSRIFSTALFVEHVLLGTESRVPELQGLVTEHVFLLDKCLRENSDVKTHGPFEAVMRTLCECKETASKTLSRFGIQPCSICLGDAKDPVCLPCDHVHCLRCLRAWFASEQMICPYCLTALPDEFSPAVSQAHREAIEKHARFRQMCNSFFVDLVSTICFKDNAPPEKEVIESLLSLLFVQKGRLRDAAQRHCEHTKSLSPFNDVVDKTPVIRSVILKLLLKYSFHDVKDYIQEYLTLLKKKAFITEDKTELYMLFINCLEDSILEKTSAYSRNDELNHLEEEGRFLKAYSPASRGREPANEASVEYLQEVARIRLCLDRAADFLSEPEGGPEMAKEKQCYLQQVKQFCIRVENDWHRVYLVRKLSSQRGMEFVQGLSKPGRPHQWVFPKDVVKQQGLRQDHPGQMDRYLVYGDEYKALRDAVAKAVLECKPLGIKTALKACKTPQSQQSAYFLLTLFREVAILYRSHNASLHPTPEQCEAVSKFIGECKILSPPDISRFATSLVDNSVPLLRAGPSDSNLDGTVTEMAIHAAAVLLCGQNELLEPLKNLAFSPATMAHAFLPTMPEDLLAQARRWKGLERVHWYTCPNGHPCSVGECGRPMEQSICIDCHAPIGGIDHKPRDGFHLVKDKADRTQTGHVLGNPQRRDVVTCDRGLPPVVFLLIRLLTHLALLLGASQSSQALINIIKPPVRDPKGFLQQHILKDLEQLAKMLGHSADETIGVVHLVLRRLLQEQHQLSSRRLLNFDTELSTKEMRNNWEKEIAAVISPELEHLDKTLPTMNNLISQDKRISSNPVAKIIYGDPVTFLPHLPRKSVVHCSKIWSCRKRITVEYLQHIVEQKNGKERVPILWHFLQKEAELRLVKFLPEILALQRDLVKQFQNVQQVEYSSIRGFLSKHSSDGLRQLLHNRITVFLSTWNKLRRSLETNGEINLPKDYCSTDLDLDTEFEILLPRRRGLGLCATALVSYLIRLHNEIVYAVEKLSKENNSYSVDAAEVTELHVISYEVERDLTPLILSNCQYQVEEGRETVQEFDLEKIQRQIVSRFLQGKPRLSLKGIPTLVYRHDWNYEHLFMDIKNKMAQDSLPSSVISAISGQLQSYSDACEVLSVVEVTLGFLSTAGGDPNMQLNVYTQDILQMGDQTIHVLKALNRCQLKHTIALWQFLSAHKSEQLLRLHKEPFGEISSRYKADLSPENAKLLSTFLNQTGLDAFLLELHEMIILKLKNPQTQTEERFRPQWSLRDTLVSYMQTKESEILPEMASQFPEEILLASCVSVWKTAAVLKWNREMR
UniProt Q9Y3B8: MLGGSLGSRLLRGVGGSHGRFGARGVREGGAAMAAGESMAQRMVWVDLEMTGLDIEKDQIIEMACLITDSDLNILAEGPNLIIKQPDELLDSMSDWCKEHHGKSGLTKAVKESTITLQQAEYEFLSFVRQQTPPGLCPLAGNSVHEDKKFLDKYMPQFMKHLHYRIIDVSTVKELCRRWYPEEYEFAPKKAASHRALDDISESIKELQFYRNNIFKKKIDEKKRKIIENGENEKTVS
UniProt Q9Y508: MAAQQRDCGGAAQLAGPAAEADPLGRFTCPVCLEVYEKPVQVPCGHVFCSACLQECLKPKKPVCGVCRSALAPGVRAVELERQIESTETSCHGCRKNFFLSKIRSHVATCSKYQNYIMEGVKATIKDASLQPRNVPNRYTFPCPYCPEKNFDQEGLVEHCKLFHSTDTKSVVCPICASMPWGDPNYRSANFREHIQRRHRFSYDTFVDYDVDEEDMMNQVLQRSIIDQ
UniProt Q9H920: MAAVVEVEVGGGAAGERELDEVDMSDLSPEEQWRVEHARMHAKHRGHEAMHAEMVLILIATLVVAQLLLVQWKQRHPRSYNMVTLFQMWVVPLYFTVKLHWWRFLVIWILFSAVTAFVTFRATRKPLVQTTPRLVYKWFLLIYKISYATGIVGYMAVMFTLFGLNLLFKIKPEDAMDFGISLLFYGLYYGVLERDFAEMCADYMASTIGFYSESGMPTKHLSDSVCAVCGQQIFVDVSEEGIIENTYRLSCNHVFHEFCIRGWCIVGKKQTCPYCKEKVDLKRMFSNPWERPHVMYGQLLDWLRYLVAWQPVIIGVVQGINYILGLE
UniProt Q6NUK4: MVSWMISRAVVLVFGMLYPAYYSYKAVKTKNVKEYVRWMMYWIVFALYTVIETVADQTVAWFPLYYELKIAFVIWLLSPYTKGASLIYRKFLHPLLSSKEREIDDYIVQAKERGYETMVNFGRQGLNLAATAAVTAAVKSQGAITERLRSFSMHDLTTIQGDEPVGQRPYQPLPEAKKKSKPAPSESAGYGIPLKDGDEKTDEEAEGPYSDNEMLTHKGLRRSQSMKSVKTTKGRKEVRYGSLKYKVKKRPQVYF

Key:
Test in all cases: log2 fold change, soluble protein after heating vs DMSO (PISA); higher = thermal stabilisation; K562 cells, 10 uM, 30 min; active = over 0.2 and 3.5 SD of the protein, either way, in both replicates (recomputed)
saracatinib = compound: CN1CCN(CCOc2cc(OC3CCOCC3)c3c(Nc4c(Cl)ccc5c4OCO5)ncnc3c2)CC1 [saracatinib]
In short: (§1)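 Quantification of soluble protein used TMTpro 16plex LC-MS/MS, with channel sums equalised. Samples were the supernatant after 21,000xg for 90 min of pooled aliquots from K562 cells (2×10^6 cells/mL) treated with 10 μM compound for 30 min, heated for 3 min over 48°C-58°C, and extracted in PBS with 0.5% NP-40 at 4°C. Values, from duplicates, describe thermal stability against control samples on a log2 fold-change scale.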

sotrastaurin = compound: CN1CCN(c2nc(C3=C(c4c[nH]c5ccccc45)C(=O)NC3=O)c3ccccc3n2)CC1 [sotrastaurin]
In short: as §1

alvocidib = compound: CN1CC[C@H](c2c(O)cc(O)c3c(=O)cc(-c4ccccc4Cl)oc23)[C@H](O)C1 [alvocidib]
In short: as §1

Tubastatin A = compound: CN1CCc2c(c3ccccc3n2Cc2ccc(C(=O)NO)cc2)C1 [Tubastatin A]
In short: as §1

[1] = compound: CNC(=O)C1=CC=CC=C1NC2=NC(=NC=C2Cl)NC3=C(C=C(C=C3)N4CCOCC4)OC
In short: as §1

defactinib = compound: CNC(=O)c1ccc(Nc2ncc(C(F)(F)F)c(NCc3nccnc3N(C)S(C)(=O)=O)n2)cc1 [defactinib]
In short: as §1

rucaparib = compound: CNCc1ccc(-c2[nH]c3cc(F)cc4c3c2CCNC4=O)cc1 [rucaparib]
In short: as §1

[2] = compound: CNc1nc(-c2ccc3c(N)n[nH]c3c2)cc(N2C[C@@H](C(=O)NC3CCCCC3)CC[C@H]2C)n1
In short: as §1

encorafenib = compound: COC(=O)N[C@@H](C)CNc1nccc(-c2cn(C(C)C)nc2-c2cc(Cl)cc(NS(C)(=O)=O)c2F)n1 [encorafenib]
In short: as §1

[3] = compound: COC(=O)[C@H](CCSC)NC(=O)C1=C(C=C(C=C1)NC[C@H](CS)N)C2=CC=CC=C2
In short: as §1

[4] = compound: COC1=CC=C(C=C1)CN2C=CC3=C2C=C(C=C3)C(=O)NO
In short: as §1

filanesib = compound: CON(C)C(=O)N1N=C(c2cc(F)ccc2F)S[C@@]1(CCCN)c1ccccc1 [filanesib]
In short: as §1

zotarolimus = compound: CO[C@H]1C[C@@H]2CC[C@@H](C)[C@@](O)(O2)C(=O)C(=O)N2CCCC[C@H]2C(=O)O[C@H]([C@H](C)C[C@@H]2CC[C@H](n3cnnn3)[C@H](OC)C2)CC(=O)[C@H](C)/C=C(\C)[C@@H](O)[C@@H](OC)C(=O)[C@H](C)C[C@H](C)/C=C/C=C/C=C/1C [zotarolimus]
In short: as §1

idasanutlin = compound: COc1cc(C(=O)O)ccc1NC(=O)[C@@H]1N[C@@H](CC(C)(C)C)[C@](C#N)(c2ccc(Cl)cc2F)[C@H]1c1cccc(Cl)c1F [idasanutlin]
In short: as §1

alisertib = compound: COc1cc(Nc2ncc3c(n2)-c2ccc(Cl)cc2C(c2c(F)cccc2OC)=NC3)ccc1C(=O)O [alisertib]
In short: as §1

[5] = compound: COc1cc2nc(-c3cc(F)ccc3O)nc(N[C@@H]3CNC[C@H]3C(C)(C)O)c2cc1OC
In short: as §1

gefitinib = compound: COc1cc2ncnc(Nc3ccc(F)c(Cl)c3)c2cc1OCCCN1CCOCC1 [gefitinib]
In short: as §1

[6] = compound: COc1cccc2cc(-c3nc([C@H]4CC[C@H](C(=O)O)CC4)n4ncnc(N)c34)[nH]c12
In short: as §1

lapatinib = compound: CS(=O)(=O)CCNCc1ccc(-c2ccc3ncnc(Nc4ccc(OCc5cccc(F)c5)c(Cl)c4)c3c2)o1 [lapatinib]
In short: as §1

pictilisib = compound: CS(=O)(=O)N1CCN(Cc2cc3nc(-c4cccc5[nH]ncc45)nc(N4CCOCC4)c3s2)CC1 [pictilisib]
In short: as §1

Measured: log2 fold change

RNF113A (UniProt O15541)
inactive: saracatinib 0.014 | sotrastaurin 0.053 | alvocidib 0.001 | Tubastatin A -0.04 | [1] -0.033 | defactinib 0.01 | rucaparib -0.016 | [2] -0.014 | encorafenib 0 | [3] 0.047 | [4] -0.011 | filanesib -0.012 | zotarolimus -0.013 | idasanutlin -0.021 | alisertib -0.047 | [5] -0.002 | gefitinib 0.015 | [6] 0.042 | lapatinib -0.012 | pictilisib 0.06

RCCD1 (UniProt A6NED2)
inactive: saracatinib 0.108 | sotrastaurin 0.073 | alvocidib -0.089 | Tubastatin A -0.058 | [1] 0.022 | defactinib -0.055 | rucaparib 0.026 | [2] -0.047 | encorafenib -0.011 | [3] 0.012 | [4] 0.057 | filanesib -0.032 | zotarolimus 0.007 | idasanutlin 0.028 | alisertib -0.109 | [5] -0.027 | gefitinib 0.142 | [6] -0.006 | lapatinib 0.038 | pictilisib 0.005

RNF213 isoform 4 (UniProt Q63HN8)
inactive: saracatinib -0.171 | sotrastaurin -0.071 | alvocidib 0.033 | Tubastatin A 0.033 | [1] -0.007 | defactinib -0.037 | rucaparib 0.288 | [2] -0.031 | encorafenib -0.075 | [3] 0.087 | [4] -0.084 | filanesib -0.062 | zotarolimus -0.083 | idasanutlin -0.238 | alisertib 0.111 | [5] -0.093 | gefitinib 0.071 | [6] 0.161 | lapatinib -0.081 | pictilisib -0.096

REXO2 (UniProt Q9Y3B8)
inactive: saracatinib 0.026 | sotrastaurin 0.058 | alvocidib -0.001 | Tubastatin A -0.031 | [1] -0.01 | defactinib -0.003 | rucaparib 0.001 | [2] -0.058 | encorafenib -0.019 | [3] 0.023 | [4] -0.012 | filanesib -0.026 | zotarolimus 0.012 | idasanutlin -0.007 | alisertib -0.006 | [5] 0.02 | gefitinib -0.002 | [6] 0.079 | lapatinib -0.035 | pictilisib 0.08

Looked up one by one from the entries so far (2):
RNF213 isoform 4 (UniProt Q63HN8)
inactive: saracatinib -0.171 | sotrastaurin -0.071 | alvocidib 0.033 | Tubastatin A 0.033 | [1] -0.007 | defactinib -0.037 | rucaparib 0.288 | [2] -0.031 | encorafenib -0.075 | [3] 0.087 | [4] -0.084 | filanesib -0.062 | zotarolimus -0.083 | idasanutlin -0.238 | alisertib 0.111 | [5] -0.093 | gefitinib 0.071 | [6] 0.161 | lapatinib -0.081 | pictilisib -0.096

REXO2 (UniProt Q9Y3B8)
inactive: saracatinib 0.026 | sotrastaurin 0.058 | alvocidib -0.001 | Tubastatin A -0.031 | [1] -0.01 | defactinib -0.003 | rucaparib 0.001 | [2] -0.058 | encorafenib -0.019 | [3] 0.023 | [4] -0.012 | filanesib -0.026 | zotarolimus 0.012 | idasanutlin -0.007 | alisertib -0.006 | [5] 0.02 | gefitinib -0.002 | [6] 0.079 | lapatinib -0.035 | pictilisib 0.08

(next part)

RNF114 (UniProt Q9Y508)
inactive: saracatinib 0.003 | sotrastaurin 0.001 | alvocidib -0.03 | Tubastatin A -0.013 | [1] 0.012 | defactinib -0.038 | rucaparib 0.02 | [2] -0.004 | encorafenib -0.019 | [3] 0.033 | [4] 0.077 | filanesib -0.065 | zotarolimus 0.028 | idasanutlin 0.007 | alisertib -0.06 | [5] 0.019 | gefitinib -0.029 | [6] -0.068 | lapatinib -0.074 | pictilisib 0.036

RFX1 (UniProt P22670)
inactive: saracatinib 0.038 | sotrastaurin -0.091 | alvocidib 0.004 | Tubastatin A 0.021 | [1] 0.02 | defactinib -0.055 | rucaparib -0.025 | [2] -0.054 | encorafenib 0.004 | [3] 0.017 | [4] -0.016 | filanesib -0.029 | zotarolimus 0.042 | idasanutlin -0.032 | alisertib -0.039 | [5] 0.058 | gefitinib -0.005 | [6] 0.031 | lapatinib 0.051 | pictilisib 0.031

RFK (UniProt Q969G6)
inactive: saracatinib -0.01 | sotrastaurin 0.02 | alvocidib 0.032 | Tubastatin A -0.02 | [1] -0.022 | defactinib -0.016 | rucaparib 0.032 | [2] -0.041 | encorafenib 0.073 | [3] 0.016 | [4] 0.078 | filanesib 0 | zotarolimus 0.006 | idasanutlin -0.006 | alisertib 0.029 | [5] -0.037 | gefitinib -0.034 | [6] 0.124 | lapatinib 0.049 | pictilisib 0.002

RDX (UniProt P35241)
inactive: saracatinib 0.03 | sotrastaurin 0.021 | alvocidib 0.007 | Tubastatin A -0.031 | [1] -0.011 | defactinib 0.01 | rucaparib -0.007 | [2] -0.035 | encorafenib -0.03 | [3] 0.003 | [4] 0.119 | filanesib 0.004 | zotarolimus -0.019 | idasanutlin -0.032 | alisertib -0.078 | [5] -0.028 | gefitinib 0.004 | [6] 0.026 | lapatinib -0.011 | pictilisib 0.038

RMDN3 (UniProt Q96TC7)
inactive: saracatinib -0.046 | sotrastaurin 0.015 | alvocidib -0.039 | Tubastatin A 0.009 | [1] -0.043 | defactinib -0.027 | rucaparib 0.021 | [2] 0.066 | encorafenib 0.049 | [3] -0.018 | [4] 0.037 | filanesib -0.048 | zotarolimus 0.022 | idasanutlin -0.026 | alisertib -0.057 | [5] 0.013 | gefitinib 0.076 | [6] 0.019 | lapatinib 0.036 | pictilisib 0.022

RHOC (UniProt P08134)
inactive: saracatinib -0.008 | sotrastaurin 0.045 | alvocidib -0.006 | Tubastatin A -0.003 | [1] 0.176 | defactinib 0 | rucaparib -0.054 | [2] -0.021 | encorafenib -0.016 | [3] -0.004 | [4] -0.017 | filanesib -0.032 | zotarolimus -0.024 | idasanutlin 0.012 | alisertib -0.047 | [5] 0.025 | gefitinib -0.005 | [6] 0.063 | lapatinib -0.007 | pictilisib 0.025

RIDA (UniProt P52758)
inactive: saracatinib 0.093 | sotrastaurin 0.036 | alvocidib 0.051 | Tubastatin A -0.022 | [1] 0.247 | defactinib 0 | rucaparib -0.012 | [2] -0.005 | encorafenib -0.067 | [3] 0.006 | [4] 0.001 | filanesib -0.007 | zotarolimus 0.005 | idasanutlin 0.01 | alisertib -0.026 | [5] -0.033 | gefitinib 0.03 | [6] -0.015 | lapatinib -0.021 | pictilisib -0.001

RETREG2 (UniProt Q8NC44)
inactive: saracatinib 0.059 | sotrastaurin -0.018 | alvocidib -0.145 | Tubastatin A 0.06 | [1] 0.095 | defactinib 0.035 | rucaparib -0.028 | [2] 0.038 | encorafenib -0.055 | [3] 0.021 | [4] -0.09 | filanesib -0.147 | zotarolimus 0.105 | idasanutlin -0.045 | alisertib -0.288 | [5] -0.076 | gefitinib -0.038 | [6] 0.076 | lapatinib 0.093

RNF121 (UniProt Q9H920)
inactive: saracatinib 0.035 | sotrastaurin 0.083 | alvocidib 0.008 | Tubastatin A -0.058 | [1] 0.032 | defactinib -0.079 | rucaparib -0.097 | [2] 0.064 | encorafenib 0.046 | [3] -0.053 | [4] 0.082 | filanesib -0.036 | zotarolimus 0.004 | idasanutlin -0.086 | alisertib -0.054 | [5] -0.052 | gefitinib 0.035 | [6] 0.084 | lapatinib 0.021 | pictilisib -0.037

REEP3 (UniProt Q6NUK4)
inactive: saracatinib -0.036 | sotrastaurin -0.176 | alvocidib -0.067 | Tubastatin A 0.029 | [1] 0.056 | defactinib 0.001 | rucaparib 0.238 | [2] -0.098 | encorafenib -0.081 | [3] 0.062 | [4] -0.099 | filanesib 0.006 | zotarolimus 0.019 | idasanutlin 0.096 | alisertib -0.346 | [5] 0.001 | gefitinib 0.024 | [6] 0.005 | lapatinib -0.014 | pictilisib 0.069

REEP5 (UniProt Q00765)
inactive: saracatinib 0.073 | sotrastaurin 0.07 | alvocidib -0.008 | Tubastatin A -0.007 | [1] -0.006 | defactinib 0.074 | rucaparib -0.068 | [2] -0.021 | encorafenib -0.036 | [3] -0.031 | [4] 0.105 | filanesib -0.051 | zotarolimus -0.016 | idasanutlin 0.102 | alisertib -0.001 | [5] -0.054 | gefitinib 0.03 | [6] 0.06 | lapatinib -0.041 | pictilisib -0.023
